# Experimental data taken from paper PMC11068552.
# Amino acid sequences for entries named in this document (tags omitted).
# UniProt Q6IAA8: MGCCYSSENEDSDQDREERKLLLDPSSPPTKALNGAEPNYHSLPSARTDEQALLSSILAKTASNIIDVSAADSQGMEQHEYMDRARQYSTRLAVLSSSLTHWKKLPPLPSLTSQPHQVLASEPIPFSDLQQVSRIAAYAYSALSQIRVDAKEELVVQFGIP
# No constants are given. Whether binding was seen depends on the method and setting. Binding seen in cells or lysates may run through a third protein. Some entries that bind do so weakly or less than the wild type.
# B1: RING finger protein 152 (protein, UniProt Q8N8N0 1-203)
# chain: METLSQDSLLECQICFNYYSPRRRPKLLDCKHTCCSVCLQQMRTSQKDVRCPWCRGVTKLPPGFSVSQLPDDPEVLAVIAIPHTSEHTPVFIKLPSNGCYMLPLPISKERALLPGDMGCRLLPGSQQKSVTVVTIPAEQQPLQGGAPQEAVEEEQDRRGVVKSSTWSGVCTVILVACVLVFLLGIVLHNMSCISKRFTVISCG
# Biological target: Ragulator complex protein p18/LAMTOR1 (human (endogenous in GBC-SD and SGC-996)) (UniProt Q6IAA8)
# Test: co-IP; endogenous proteins in RIPA lysates of GBC-SD and SGC-996 cells; immunoprecipitation with the indicated antibodies, protein G agarose, 4°C overnight, western blot
binder,measurement,value
B1,binding,binds
